Substitutions are numbered along the chain they refer to. Names may count otherwise. No constants are given. Whether binding was seen depends on the method and setting. Where a sequence is shown, tags or fusion partners need not be part of it.
B1: DCD-C34S analog (recombinant human dermcidin residue 20-110 with a Cys to Ser substitution at residue 34, N-terminal 6×His tag) (natural protein, UniProt P81605 20-110, looked up)
chain: YDPEAASAPGSGNPSHEASAAQKENAGEDPGLARQAPKPRKQRSSLLEKGLDGAKKAVGGLGKLGKDAVEDLESVGKGAVHDVKDVLDSVL
notes: dermcidin (DCD), human, residues 20-110 without the signal leader peptide, with C34S; Made by similar procedures as m1; source: E. coli BL21 (DE3) pLysS, purified to homogeneity; Triton X-114 extraction to remove endotoxins; not shown: His6, N-terminal, kept
B2: recombinant human dermcidin (full-length DCD precursor, residue 20-110) with N-terminal 6×His tag (natural protein, UniProt P81605 20-110, looked up)
chain: B1 chain with S15C
notes: dermcidin (DCD), human, residues 20-110, without the N-terminal 19-aa signal leader peptide (residue 1-19); one sentence of the methods says residue 20-100; Without a reducing agent the preparation is a mixture of monomers and disulfide-linked dimers (through Cys34); results and legends print 20-110; also called recombinant DCD; source: E. coli BL21 (DE3) pLysS, purified; Triton X-114 extraction …

What was measured:
[1] = molecular target: DCD-C34S analog (recombinant human dermcidin residue 20-110 with a Cys to Ser substitution at residue 34, N-terminal 6×His tag) (human) (UniProt P81605); assay: SDS-PAGE with and without DTT; purified recombinant His-tagged protein run on SDS-PAGE in the presence or absence of the reducing agent dithiothreitol; shows disulfide-linked (covalent) dimers only; both purified
[2] = molecular target: recombinant human dermcidin (full-length DCD precursor, residue 20-110) with N-terminal 6×His tag (human) (UniProt P81605); assay: as above

Binder	binding [1]	binding [2]
B1	no binding	–
B2	–	no binding (condition: with DTT)
